Experimental data published in paper PMC12497838.
These are yes or no findings as the source states them, for the method shown. In cells and extracts the contact can be indirect. Some binding calls cover weakened binding; strength is not graded here.

By UniProt entry, the sequences of proteins in these tests, tags left out.
UniProt A0A8I3MKE1: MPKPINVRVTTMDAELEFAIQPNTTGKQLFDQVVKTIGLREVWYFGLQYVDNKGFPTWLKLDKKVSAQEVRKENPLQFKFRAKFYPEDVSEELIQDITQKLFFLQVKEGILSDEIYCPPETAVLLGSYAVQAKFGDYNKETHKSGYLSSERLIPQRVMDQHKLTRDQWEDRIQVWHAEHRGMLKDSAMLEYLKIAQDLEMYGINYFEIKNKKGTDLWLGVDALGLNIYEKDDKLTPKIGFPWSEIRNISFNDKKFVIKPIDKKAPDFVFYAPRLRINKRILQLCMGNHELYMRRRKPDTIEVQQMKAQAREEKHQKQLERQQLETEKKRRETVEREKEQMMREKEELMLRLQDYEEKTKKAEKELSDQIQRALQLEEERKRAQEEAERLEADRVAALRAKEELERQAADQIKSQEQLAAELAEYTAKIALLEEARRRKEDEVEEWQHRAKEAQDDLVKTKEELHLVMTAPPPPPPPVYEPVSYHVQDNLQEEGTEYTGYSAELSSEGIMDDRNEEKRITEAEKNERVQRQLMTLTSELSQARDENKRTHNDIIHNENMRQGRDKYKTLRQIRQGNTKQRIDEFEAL

Target: T1, podocalyxin (PDX) (dog (endogenous in MDCK)) (UniProt Q52S86)
T1 sequence (chain, heavily glycosylated with both N- and O-linked glycans): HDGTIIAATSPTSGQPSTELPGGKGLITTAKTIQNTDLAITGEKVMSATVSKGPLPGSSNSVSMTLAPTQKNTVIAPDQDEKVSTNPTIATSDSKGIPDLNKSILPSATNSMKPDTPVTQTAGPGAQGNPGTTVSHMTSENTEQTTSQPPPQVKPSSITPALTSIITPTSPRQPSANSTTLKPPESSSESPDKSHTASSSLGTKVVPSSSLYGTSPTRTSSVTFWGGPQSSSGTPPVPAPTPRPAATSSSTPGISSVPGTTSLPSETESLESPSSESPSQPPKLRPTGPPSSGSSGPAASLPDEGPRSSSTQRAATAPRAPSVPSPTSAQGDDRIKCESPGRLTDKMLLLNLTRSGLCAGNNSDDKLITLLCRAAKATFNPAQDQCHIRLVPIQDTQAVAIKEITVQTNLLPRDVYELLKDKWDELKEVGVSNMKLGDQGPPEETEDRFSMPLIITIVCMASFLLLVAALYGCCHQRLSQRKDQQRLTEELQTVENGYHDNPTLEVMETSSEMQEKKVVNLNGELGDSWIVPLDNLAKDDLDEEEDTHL
Assay: co-IP; polarized MDCK and MDCK-deltaTTL (TTL knockout) cells lysed in Mg2+ lysis buffer (pH 7.4; 100 mM NaCl; 20 mM Tris; 10 mM MgCl2; 5 mM EDTA; 2 mM DTT; 0.4% NP-40); anti-PDX antibodies/protein A-sepharose, 3 h at 4 °C; immunoblot with anti-ezrin; non-specific IgG beads as negative control

binding: binds
Substance: ezrin (from UniProt A0A8I3MKE1 1-586)
